Measured values from publication PMC7683537.
No constants are given. Whether binding was seen depends on the method and setting. In cells and extracts the contact can be indirect. Binding can be weak; no strength is given.

The chains behind the UniProt entries cited, without tags or fusion partners. Where a name states a change or a piece, a line headed by the entry shows the natural chain unless it says otherwise.
UniProt P28033: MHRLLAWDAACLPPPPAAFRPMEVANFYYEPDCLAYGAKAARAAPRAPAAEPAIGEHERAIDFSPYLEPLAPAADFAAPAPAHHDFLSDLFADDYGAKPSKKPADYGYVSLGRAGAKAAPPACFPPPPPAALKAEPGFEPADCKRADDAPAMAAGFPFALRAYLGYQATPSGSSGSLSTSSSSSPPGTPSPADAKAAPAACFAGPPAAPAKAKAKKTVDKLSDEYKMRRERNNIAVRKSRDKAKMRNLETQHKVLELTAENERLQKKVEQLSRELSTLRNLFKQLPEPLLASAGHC
UniProt Q91X20: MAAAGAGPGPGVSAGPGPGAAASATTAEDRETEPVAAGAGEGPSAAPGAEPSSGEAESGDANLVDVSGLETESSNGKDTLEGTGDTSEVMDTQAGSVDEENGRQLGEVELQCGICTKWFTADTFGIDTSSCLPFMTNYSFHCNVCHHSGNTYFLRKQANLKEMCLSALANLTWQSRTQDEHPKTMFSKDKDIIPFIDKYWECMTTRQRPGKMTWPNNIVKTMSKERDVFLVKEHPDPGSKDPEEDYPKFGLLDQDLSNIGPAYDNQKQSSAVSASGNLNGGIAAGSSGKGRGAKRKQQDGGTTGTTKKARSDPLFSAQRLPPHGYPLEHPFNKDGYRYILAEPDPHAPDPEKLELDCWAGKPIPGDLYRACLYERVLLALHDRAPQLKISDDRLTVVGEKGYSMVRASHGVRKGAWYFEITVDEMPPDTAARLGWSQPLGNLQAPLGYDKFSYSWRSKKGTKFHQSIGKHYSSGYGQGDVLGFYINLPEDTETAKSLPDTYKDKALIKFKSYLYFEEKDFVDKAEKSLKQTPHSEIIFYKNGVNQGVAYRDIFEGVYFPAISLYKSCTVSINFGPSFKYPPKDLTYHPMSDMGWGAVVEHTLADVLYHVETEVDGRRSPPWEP
UniProt Q8BX09: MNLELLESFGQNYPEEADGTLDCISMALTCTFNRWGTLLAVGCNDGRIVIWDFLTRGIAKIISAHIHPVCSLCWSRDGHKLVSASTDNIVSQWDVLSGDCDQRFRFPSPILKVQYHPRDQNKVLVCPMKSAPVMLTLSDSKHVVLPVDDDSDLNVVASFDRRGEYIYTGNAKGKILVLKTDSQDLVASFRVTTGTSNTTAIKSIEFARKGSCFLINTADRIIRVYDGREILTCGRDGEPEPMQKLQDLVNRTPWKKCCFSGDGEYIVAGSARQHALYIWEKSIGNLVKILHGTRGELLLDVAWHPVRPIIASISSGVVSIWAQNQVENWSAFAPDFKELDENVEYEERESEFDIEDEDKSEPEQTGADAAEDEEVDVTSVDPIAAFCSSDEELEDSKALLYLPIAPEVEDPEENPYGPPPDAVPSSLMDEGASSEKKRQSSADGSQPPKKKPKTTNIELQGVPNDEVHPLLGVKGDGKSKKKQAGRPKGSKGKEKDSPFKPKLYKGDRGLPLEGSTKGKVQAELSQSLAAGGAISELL
UniProt Q99LT0: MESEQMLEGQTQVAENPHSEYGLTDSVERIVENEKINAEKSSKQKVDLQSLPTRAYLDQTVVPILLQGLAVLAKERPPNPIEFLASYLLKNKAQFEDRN

The substances below were run against C/EBPβ (transfected into HEK293T cells) (UniProt P28033) (assay: co-IP; HEK293T cells cotransfected with C/EBPβ, one of ASH2L, DPY30, RBBP5 or WDR5, and full length lncLy6C or lncLy6C with mutated m6A sites (Mut1-Mut4); isotypic control).

Question: “ASH2L (transfected into HEK293T cells) (from UniProt Q91X20 1-623)” was tested. Which binding did it give?
Answer: binds

Question: With “RBBP5 (transfected into HEK293T cells) (from UniProt Q8BX09 1-538)” as the substance, how does the binding read?
Answer: binds

Question: “DPY30 (transfected into HEK293T cells) (from UniProt Q99LT0 1-99)” was tested. Which binding did it give?
Answer: binds
